Test results published in patent US20190292524A1, “METHODS FOR CANCER STEM CELL (CSC) EXPANSION” (TRANSGENEX NANOBIOTECH, INC., priority 2016, published 2019).
Some entries share one result that the patent states for a list of compounds.

Test system: CSCs
Test: Stem cell amplification by growth factors added to tumoroid culture medium
Assay type: cell-based
Conditions: growth factor added to culture medium

TGF-β
increase in stem cell amplification: ≤ 5 fold
